Experimental data: EP2961395B1, “TARGETED NANOPARTICLES” (CALIFORNIA INSTITUTE OF TECHNOLOGY, priority 2013, dated 2014)

Test system: BT-474 xenograft tumors

CCc1c2c(nc3ccc(OC(=O)N4CCC(N5CCCCC5)CC4)cc13)-c1cc3c(c(=O)n1C2)COC(=O)[C@]3(O)CC [Irinotecan]
NNTRD (number of non-treatment related death) (80 mg/kg i.v. once per week for 3 weeks): 0

CC[C@@]1(O)C(=O)OCc2c1cc1n(c2=O)Cc2cc3ccccc3nc2-1 [CPT, Camptothecin]
NNTRD (number of non-treatment related death) (8 mg/kg (MAP-CPT on CPT basis) i.v. once per week for 3 weeks): 0

Where two headings read alike, the source gives them in different places.
